The exact form of at least one protein or probe is not confirmed. No signal at the amounts used counts as a negative.
System: σHAs (SigH, ACSP50_0507) (Actinoplanes sp. SE50/110)
Experiment: EMSA
Settings: 3.40 uM protein, 0.05 nM DNA, poly(dI-dC), LightShift Chemiluminescent EMSA kit per manufacturer, 0.05 nM biotinylated dsDNA, 0.05-1 nM unlabeled competitor, recombinant protein, protein details: C-terminal His6, label: 5' biotin on strand 1

GGCTGCACCCGCGGCTGCCTGATCTGCCTGTCCCACATCAAGTGCACGCCGAAGATGAAGA (double strand) [gLuc negative control]
binding result: no binding

GAAATTAGACTTTTGTTTTCTCTGTGATTACTGATCTTCGTGGAGGGGATTAGAGCCCCCG (double strand) [ACSP50_4135 promoter (-60 to +1)]
binding result (competed by excess unlabeled specific DNA): binds

ACGAGTGTCACTCATACTTTCGGCTAGTCTTTCGTCGGACACTCGGCTACGGTGGTCGCA (double strand) [sigHAs (ACSP50_0507) promoter (-60 to +1)]
binding result (reversed by excess unlabeled specific DNA): binds

From PMC11205660
